Laboratory results from the supplement of paper PMC10849652.
The other results are listed elsewhere or left out.

The chains behind the UniProt entries cited, without tags or fusion partners. Where a name states a change or a piece, a line headed by the entry shows the natural chain unless it says otherwise.
UniProt Q7Z460: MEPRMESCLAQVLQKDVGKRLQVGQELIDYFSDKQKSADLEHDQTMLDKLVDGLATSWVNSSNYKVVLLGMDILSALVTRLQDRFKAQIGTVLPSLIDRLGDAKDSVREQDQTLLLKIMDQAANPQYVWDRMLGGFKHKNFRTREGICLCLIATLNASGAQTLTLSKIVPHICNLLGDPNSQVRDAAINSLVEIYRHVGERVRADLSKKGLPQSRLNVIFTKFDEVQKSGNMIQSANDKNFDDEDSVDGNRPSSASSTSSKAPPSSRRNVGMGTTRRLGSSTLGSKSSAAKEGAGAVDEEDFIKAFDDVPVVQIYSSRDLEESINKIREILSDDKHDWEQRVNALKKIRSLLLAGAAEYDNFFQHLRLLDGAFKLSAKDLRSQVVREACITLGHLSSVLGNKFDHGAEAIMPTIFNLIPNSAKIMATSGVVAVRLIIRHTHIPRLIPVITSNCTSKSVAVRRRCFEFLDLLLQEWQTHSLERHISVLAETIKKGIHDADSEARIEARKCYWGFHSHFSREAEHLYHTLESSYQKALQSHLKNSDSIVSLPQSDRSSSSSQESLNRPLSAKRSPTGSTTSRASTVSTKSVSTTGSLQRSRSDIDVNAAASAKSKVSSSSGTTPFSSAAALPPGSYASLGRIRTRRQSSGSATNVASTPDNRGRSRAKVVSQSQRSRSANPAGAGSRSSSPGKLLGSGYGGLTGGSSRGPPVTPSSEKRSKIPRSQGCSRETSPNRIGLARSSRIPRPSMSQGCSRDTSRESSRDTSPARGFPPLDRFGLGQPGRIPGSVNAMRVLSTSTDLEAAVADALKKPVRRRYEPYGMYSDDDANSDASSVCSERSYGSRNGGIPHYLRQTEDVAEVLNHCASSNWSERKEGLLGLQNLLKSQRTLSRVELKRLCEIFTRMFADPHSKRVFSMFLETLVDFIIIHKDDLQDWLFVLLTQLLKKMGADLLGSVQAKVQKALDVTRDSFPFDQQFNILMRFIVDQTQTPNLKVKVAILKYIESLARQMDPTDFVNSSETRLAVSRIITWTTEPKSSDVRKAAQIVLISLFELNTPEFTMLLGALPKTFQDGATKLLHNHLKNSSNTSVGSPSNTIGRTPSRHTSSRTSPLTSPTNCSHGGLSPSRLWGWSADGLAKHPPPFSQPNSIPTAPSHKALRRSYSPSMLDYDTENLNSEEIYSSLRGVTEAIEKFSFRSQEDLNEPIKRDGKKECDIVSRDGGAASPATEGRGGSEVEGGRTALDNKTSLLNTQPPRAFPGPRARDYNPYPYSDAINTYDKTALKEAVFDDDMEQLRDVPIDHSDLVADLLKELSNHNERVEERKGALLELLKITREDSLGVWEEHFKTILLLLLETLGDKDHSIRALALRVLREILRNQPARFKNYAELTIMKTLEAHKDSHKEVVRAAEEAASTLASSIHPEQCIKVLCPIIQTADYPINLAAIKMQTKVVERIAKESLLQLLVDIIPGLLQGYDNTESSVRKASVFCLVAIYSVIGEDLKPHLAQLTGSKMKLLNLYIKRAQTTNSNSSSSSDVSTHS
UniProt Q15846: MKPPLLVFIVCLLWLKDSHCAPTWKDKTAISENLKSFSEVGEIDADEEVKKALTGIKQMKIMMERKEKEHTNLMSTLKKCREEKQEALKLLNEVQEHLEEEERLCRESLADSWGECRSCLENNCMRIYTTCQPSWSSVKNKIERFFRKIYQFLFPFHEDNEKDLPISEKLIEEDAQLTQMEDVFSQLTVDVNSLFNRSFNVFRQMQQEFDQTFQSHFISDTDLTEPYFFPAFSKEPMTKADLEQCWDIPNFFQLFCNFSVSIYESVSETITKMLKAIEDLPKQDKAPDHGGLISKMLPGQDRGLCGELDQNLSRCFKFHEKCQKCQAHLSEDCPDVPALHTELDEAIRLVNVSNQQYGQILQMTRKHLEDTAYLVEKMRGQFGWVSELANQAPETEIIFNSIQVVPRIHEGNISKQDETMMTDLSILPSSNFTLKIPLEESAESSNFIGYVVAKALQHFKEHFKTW
UniProt P33552, whole entry, looked up: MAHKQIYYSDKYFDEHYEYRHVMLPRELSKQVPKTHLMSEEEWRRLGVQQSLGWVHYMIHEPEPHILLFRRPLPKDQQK
UniProt O75503: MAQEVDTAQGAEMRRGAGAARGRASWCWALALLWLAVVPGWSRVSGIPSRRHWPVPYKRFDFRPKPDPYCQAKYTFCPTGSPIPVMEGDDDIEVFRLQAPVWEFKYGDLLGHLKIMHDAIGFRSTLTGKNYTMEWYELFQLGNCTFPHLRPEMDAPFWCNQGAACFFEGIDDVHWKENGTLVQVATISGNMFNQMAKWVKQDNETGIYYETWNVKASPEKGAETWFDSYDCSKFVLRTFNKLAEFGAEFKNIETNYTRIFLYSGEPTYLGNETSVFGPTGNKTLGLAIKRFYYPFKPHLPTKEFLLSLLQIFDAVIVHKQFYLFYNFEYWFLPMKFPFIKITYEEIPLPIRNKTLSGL
UniProt Q9Y3Y2: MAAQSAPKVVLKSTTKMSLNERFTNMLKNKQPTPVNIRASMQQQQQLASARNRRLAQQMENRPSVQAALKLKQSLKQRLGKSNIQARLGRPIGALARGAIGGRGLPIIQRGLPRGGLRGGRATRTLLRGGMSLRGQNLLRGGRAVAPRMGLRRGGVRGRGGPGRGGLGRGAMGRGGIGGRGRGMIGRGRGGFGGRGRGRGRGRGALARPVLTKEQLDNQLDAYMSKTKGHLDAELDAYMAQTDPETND
UniProt P49760, whole entry, looked up: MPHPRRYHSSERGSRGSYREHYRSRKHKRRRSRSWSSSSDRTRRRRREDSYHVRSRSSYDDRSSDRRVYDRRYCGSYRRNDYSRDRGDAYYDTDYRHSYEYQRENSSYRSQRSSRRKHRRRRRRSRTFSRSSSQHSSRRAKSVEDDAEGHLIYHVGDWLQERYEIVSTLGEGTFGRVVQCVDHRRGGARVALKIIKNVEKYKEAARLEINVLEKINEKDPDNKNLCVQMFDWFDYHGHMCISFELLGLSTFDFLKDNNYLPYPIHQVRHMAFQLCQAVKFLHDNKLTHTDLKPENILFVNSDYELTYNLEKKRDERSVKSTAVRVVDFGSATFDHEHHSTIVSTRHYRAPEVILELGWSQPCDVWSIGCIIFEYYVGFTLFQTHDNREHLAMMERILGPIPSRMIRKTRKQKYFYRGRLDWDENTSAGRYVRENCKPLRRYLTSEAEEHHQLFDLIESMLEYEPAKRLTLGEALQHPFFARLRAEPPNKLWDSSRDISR
UniProt Q96AJ1: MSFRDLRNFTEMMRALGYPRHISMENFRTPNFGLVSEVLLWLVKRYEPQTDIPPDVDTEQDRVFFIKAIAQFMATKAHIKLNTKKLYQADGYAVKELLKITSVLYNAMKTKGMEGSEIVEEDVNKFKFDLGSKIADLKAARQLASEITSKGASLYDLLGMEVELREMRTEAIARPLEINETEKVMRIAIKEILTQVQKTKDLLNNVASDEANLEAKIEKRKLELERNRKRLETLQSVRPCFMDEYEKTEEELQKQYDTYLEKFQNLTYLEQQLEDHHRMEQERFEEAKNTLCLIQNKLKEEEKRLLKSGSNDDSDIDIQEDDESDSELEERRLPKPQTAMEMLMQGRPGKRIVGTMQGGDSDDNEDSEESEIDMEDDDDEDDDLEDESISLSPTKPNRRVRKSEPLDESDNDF
UniProt Q86X95: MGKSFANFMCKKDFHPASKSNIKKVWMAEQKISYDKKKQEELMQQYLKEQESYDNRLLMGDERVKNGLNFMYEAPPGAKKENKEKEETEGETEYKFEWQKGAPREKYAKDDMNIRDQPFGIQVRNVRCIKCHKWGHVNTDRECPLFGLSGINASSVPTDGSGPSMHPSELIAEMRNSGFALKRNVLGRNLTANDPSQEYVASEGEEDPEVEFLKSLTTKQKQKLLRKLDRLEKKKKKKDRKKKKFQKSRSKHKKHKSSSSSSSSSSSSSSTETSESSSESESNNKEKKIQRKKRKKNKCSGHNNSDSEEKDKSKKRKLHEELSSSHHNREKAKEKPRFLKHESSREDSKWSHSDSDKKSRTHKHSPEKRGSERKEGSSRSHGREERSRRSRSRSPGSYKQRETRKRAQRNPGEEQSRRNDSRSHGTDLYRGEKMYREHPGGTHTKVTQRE
UniProt Q9BRQ6: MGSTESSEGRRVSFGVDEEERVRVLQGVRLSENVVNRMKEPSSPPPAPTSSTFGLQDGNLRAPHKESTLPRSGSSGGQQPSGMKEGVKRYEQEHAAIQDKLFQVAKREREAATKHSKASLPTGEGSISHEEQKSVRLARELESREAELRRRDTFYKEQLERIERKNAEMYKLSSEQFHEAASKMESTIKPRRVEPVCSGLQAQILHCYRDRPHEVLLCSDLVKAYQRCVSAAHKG
UniProt P49761: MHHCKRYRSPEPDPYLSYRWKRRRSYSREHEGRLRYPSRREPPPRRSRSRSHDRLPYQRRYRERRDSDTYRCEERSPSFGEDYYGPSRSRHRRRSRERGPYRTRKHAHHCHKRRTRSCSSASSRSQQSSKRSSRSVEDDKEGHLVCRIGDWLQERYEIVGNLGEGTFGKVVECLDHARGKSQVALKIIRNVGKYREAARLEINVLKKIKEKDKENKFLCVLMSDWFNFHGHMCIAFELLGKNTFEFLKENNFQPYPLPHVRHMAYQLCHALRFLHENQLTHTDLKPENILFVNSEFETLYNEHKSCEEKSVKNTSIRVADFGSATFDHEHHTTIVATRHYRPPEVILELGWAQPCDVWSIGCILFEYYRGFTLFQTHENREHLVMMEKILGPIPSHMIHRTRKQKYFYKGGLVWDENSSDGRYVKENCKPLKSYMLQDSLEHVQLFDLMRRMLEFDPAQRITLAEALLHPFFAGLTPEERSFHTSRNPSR
UniProt Q8IZ52: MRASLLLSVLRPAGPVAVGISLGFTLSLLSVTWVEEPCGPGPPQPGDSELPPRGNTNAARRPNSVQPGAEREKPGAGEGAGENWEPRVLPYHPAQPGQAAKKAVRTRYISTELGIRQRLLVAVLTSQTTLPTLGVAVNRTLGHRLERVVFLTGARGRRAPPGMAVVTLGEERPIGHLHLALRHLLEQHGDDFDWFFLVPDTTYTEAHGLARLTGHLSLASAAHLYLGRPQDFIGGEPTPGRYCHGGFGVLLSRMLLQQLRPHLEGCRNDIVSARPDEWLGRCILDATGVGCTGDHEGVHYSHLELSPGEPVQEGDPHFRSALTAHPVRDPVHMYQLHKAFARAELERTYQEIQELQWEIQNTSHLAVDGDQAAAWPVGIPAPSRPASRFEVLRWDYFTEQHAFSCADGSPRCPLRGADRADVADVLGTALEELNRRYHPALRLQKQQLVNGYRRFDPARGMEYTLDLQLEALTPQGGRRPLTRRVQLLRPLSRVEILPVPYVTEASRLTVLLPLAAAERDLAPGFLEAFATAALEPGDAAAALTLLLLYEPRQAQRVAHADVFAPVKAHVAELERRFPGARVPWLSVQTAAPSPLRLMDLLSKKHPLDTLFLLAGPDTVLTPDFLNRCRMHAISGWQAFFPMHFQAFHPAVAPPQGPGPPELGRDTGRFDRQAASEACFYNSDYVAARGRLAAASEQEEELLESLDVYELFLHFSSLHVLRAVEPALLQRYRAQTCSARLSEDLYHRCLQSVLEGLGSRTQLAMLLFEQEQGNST
UniProt Q07065: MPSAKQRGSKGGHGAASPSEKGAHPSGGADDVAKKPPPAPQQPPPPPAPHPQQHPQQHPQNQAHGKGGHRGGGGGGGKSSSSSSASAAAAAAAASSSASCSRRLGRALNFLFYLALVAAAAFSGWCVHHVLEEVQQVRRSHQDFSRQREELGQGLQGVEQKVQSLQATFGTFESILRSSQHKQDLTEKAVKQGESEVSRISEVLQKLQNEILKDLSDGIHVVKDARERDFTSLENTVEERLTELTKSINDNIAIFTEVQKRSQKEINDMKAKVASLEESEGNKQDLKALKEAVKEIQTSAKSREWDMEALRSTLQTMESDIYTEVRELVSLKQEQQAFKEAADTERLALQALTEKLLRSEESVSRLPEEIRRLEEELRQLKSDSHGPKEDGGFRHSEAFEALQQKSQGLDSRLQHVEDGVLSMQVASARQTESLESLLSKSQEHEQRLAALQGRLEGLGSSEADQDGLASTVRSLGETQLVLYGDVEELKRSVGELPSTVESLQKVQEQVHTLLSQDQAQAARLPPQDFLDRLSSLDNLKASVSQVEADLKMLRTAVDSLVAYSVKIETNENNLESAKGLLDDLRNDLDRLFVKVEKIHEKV
UniProt Q9Y240: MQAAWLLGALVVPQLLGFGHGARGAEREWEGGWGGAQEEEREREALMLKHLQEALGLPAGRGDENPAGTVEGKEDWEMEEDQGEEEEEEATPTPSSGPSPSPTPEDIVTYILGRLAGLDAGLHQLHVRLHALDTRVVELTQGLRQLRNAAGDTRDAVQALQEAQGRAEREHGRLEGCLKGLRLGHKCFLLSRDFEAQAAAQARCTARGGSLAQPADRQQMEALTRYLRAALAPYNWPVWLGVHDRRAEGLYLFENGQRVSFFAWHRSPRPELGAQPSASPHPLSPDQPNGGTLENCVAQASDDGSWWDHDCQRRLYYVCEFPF

compound: Cc1ncc(-c2ccnc(Nc3ccc(S(C)(=O)=O)cc3)n2)n1C(C)C; experiment: log2 fold change, soluble protein after heating vs DMSO (PISA); higher = thermal stabilisation; K562 lysate, 10 uM; active = over 0.2 and 3.5 SD of the protein, either way, in both replicates (recomputed)
Method in brief: (§1)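 Log-two fold change in thermal stability relative to solvent controls is reported from duplicates. For each sample, crude K562 extract from dounce-homogenised pellets in PBS pH 7.4 with 1 mM MgCl2, at 1 mg/mL protein, was treated with 10 μM compound for 30 min. Aliquots heated for 3 min across 48°C-58°C were pooled, brought to 0.5% NP-40 at 4°C and cleared at 21,000xg for 90 min. The supernatant was quantified by TMTpro 16plex LC-MS/MS with channel sums equalised.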

log2 fold change, inactive:
CLASP1 isoform 4 (UniProt Q7Z460) 0.09
CLUL1 (UniProt Q15846) 0.04
CLK1 isoform 3 (UniProt P49759) 0.055
CMTR2 (UniProt Q8IYT2) 0.205
CLUAP1 (UniProt I3L2E1) 0.26
CKS2 (UniProt P33552) -0.102
CLN5 (UniProt O75503) 0.05

compound: Cn1cc(-c2ccc3c(c2)CCN3C(=O)Cc2cccc(C(F)(F)F)c2)c2c(N)ncnc21; experiment: as above
Method in brief: as §1

log2 fold change, inactive:
CHTOP isoform 3 (UniProt Q9Y3Y2) 0.017
CLK2 (UniProt P49760) -0.022
CITED2 (UniProt Q99967) -0.094
CHPF2 (UniProt Q9P2E5) 0.123
CLUAP1 (UniProt Q96AJ1) 0.039
CLCN6 isoform 5 (UniProt P51797) 0.067
CLINT1 (UniProt Q14677) -0.02
CIR1 (UniProt Q86X95) 0.268
CKLF (UniProt Q9UBR5) -0.118
CHCHD6 (UniProt Q9BRQ6) -0.078
CLIP2 (UniProt Q9UDT6) 0.087
CHST2 (UniProt Q9Y4C5) -0.235
CLK3 (UniProt P49761) -0.157
CHPF (UniProt Q8IZ52) 0.017
CHMP4A (UniProt H0YIN6) -0.06
CKAP4 (UniProt Q07065) -0.036
CLCN2 (UniProt P51788) 0.054
CLIC6 (UniProt Q96NY7) -0.024

compound: Cn1cc(CNCC2CCN(c3ncc(C(=O)NO)cn3)CC2)c2ccccc21 [quisinostat]; experiment: as above
Method in brief: as §1

log2 fold change, inactive:
CHTOP isoform 3 (UniProt Q9Y3Y2) -0.004
CLK2 (UniProt P49760) 0.037
CHPF2 (UniProt Q9P2E5) -0.052
CLUAP1 (UniProt Q96AJ1) -0.274
CMTM4 (UniProt Q8IZR5) 0.034
CLCN6 isoform 5 (UniProt P51797) 0
CLINT1 (UniProt Q14677) 0.183
CIR1 (UniProt Q86X95) -0.017
CKLF (UniProt Q9UBR5) 0.093
CLUAP1 (UniProt I3L2E1) -0.656
CLIP1, A0A3B3ITA2 -0.169
CHCHD6 (UniProt Q9BRQ6) 0.014
CLIP2 (UniProt Q9UDT6) -0.117
CHURC1-FNTB (UniProt B4DL54) -0.037
CHST2 (UniProt Q9Y4C5) 0.127
CLK3 (UniProt P49761) 0.023
CHPF (UniProt Q8IZ52) 0.078
CHMP4A (UniProt H0YIN6) -0.502
CLEC11A (UniProt Q9Y240) 0.05
CKAP4 (UniProt Q07065) 0.098
CLCN2 (UniProt P51788) 0.068
CLIC6 (UniProt Q96NY7) -0.081
